Measured values from publication PMC5190095.
No constants are given. Whether binding was seen depends on the method and setting. In cells and extracts the contact can be indirect. Some entries that bind do so weakly or less than the wild type. For part of these data: Where a sequence is shown, tags or fusion partners need not be part of it.

Amino acid sequences for entries named in this document (tags omitted).
UniProt Q99471: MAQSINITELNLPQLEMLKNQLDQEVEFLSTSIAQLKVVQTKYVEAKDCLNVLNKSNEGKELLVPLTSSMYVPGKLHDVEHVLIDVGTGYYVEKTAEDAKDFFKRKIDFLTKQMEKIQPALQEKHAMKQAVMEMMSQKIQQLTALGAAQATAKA

Assays:
[1] = molecular target: T1, Myc-tagged ΔNp63α (human) (UniProt Q9H3D4); assay: co-IP; H1299 cells co-transfected with Myc-tagged p63 isoform plus FLAG-MM1; EBC250 lysis buffer (250 mM NaCl, 0.5% NP-40, pH 8.0); IP with anti-FLAG or anti-Myc tag at 4°C, protein A-agarose; IB with anti-p63 and anti-FLAG
T1 sequence: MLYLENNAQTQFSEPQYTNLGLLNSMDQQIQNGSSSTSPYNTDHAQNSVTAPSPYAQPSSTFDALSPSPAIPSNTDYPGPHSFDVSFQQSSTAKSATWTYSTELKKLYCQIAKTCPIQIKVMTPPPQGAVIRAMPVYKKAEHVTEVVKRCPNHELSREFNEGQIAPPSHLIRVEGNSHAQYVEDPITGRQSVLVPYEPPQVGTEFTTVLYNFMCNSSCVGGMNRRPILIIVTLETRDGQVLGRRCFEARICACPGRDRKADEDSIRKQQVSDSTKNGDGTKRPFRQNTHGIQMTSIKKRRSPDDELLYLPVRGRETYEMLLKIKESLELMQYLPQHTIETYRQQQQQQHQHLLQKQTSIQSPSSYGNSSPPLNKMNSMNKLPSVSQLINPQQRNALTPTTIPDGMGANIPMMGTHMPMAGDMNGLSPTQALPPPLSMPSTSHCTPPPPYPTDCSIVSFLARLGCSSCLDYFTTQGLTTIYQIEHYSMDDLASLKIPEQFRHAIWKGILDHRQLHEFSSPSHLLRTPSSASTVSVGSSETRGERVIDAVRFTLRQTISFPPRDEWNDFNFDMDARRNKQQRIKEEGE

[2] = molecular target: T2, Myc-tagged ΔNp63γ (human) (UniProt Q9H3D4); assay: as above
T2 sequence: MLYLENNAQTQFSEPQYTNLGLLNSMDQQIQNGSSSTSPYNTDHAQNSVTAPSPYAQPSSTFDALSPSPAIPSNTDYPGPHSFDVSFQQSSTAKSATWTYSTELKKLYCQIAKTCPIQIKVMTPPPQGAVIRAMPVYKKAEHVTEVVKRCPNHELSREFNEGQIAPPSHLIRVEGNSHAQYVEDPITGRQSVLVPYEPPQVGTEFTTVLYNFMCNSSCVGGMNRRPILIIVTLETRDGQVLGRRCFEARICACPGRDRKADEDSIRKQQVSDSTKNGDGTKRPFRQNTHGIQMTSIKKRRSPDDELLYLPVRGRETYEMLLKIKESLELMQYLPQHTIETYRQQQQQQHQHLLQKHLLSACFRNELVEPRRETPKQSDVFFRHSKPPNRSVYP

[3] = molecular target: T3, endogenous ΔNp63α (human (endogenous in MCF10A)) (UniProt Q9H3D4); assay: co-IP; endogenous proteins in MCF10A lysate; EBC250 lysis buffer; IP with anti-p63 or anti-MM1 at 4°C, normal mouse or rabbit IgG as control; IB with anti-p63 and anti-MM1
T3 sequence: T1 sequence

Substance	binding [1]	binding [2]	binding [3]
FLAG-tagged MM1 (from UniProt Q99471 1-154)	binds	no binding	
endogenous MM1 (from UniProt Q99471 1-154)			binds
